The supplement of paper PMC6078165
Values are relative to the signal before dosing, not to a vehicle control; the signal also falls without drug.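 Fibroblast labels name human fibroblasts: mostly primary ones from tissues such as uterus (C12385, HUF), lung (H6013), bone (Hs27A), adrenal (HADF) and skin (WS1), plus mammary HMF and breast cancer-associated Hs343T. The cancer cells are basal-like or mesenchymal-like triple-negative breast cancer lines. The paper calls a changed response a hit when it shifts by more than 3x the replicate standard deviation. The tissue of the other fibroblasts is not given here.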 Numbered stars: 1 amine (or outer) side, 2 acyl side, 3 side chain; on linkers, the order of the positions; unused ones are H or OH. Bridge positions count the residues as written; N and C are the ends. Square brackets hold non-standard residues; d marks the D form. Peptide text beside a SMILES is read from it. I, II: the chains in the order shown. Actinocin(9to1) = Cc1c2oc3c(C)ccc(C(=O)[*:1])c3nc-2c(C(=O)[*:2])c(N)c1=O; NMeV = CN[C@H](C(=O)O)C(C)C; Sar = CNCC(=O)O

Test system: Hs578T
Experiment: relative JC-1 red fluorescence (viability) vs pre-drug, coculture with fibroblast (fraction); higher = more viable cancer cells
Conditions: 0.1 µM
Method: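 JC-1 labelled TNBC cells cocultured 1:1 (1,500 cells each) with CellTrace Violet stained primary or stromal fibroblasts in 384-well plates in FluoroBrite medium, treated with one of 42 anticancer drugs at 0.1, 1, 10 or 100 uM. JC-1 red fluorescence (mitochondrial integrity in cancer cells only) was read by plate reader every 8 h for 72 h. Values are normalised to each well's pre-drug value. The stock of one drug was tenfold lower, so its dose labels may be too high.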

Cc1c2oc3c(C)ccc(C(=O)N[C@@H]4C(=O)N[C@H](C(C)C)C(=O)N5CCC[C@H]5C(=O)N(C)CC(=O)N(C)[C@@H](C(C)C)C(=O)O[C@@H]4C)c3nc-2c(C(=O)N[C@@H]2C(=O)N[C@H](C(C)C)C(=O)N3CCC[C@H]3C(=O)N(C)CC(=O)N(C)[C@@H](C(C)C)C(=O)O[C@@H]2C)c(N)c1=O [Dactinomycin] (I: T[dV]P[Sar][NMeV] / II: T[dV]P[Sar][NMeV]; ester I:1-I:C, II:1-II:C; linker I:N-II:N via Actinocin(9to1))
Conditions | relative JC-1 red fluorescence
8 h | 0.8586
16 h | 0.791
24 h | 0.759
32 h | 0.737
40 h | 0.681

relative JC-1 red fluorescence
Conditions | 8 h | 16 h | 24 h | 32 h | 40 h
coculture fibroblast: C12385 | 0.82 | 0.747 | 0.684 | 0.596 | 0.533
coculture fibroblast: H6013 | 0.8426 | 0.8202 | 0.781 | 0.749 | 0.712
coculture fibroblast: H6019 | 0.78 | 0.7003 | 0.675 | 0.59 | 0.561
coculture fibroblast: H6076 | 0.903 | 0.813 | 0.734 | 0.701 | 0.634
coculture fibroblast: H6231 | 0.8629 | 0.785 | 0.717 | 0.673 | 0.606
coculture fibroblast: HADF | 0.829 | 0.772 | 0.716 | 0.668 | 0.617
coculture fibroblast: HCFa | 0.805 | 0.7559 | 0.714 | 0.667 | 0.629
coculture fibroblast: HCPF | 0.904 | 0.8204 | 0.7671 | 0.733 | –
coculture fibroblast: HHSteC | 0.834 | 0.785 | 0.752 | 0.731 | –
coculture fibroblast: HMF | 0.841 | 0.7787 | 0.746 | 0.729 | –
coculture fibroblast: HPFa | 0.856 | 0.7979 | 0.74 | 0.69236 | –
coculture fibroblast: HUF | 0.8091 | 0.7009 | 0.694 | 0.595 | –
coculture fibroblast: Hs27A | 0.879 | 0.855 | 0.828 | 0.7983 | –
coculture fibroblast: Hs343T | 0.868 | 0.7701 | 0.72 | 0.696 | –
coculture fibroblast: WS1 | 0.806 | 0.714 | 0.687 | 0.579 | –
